Results are given in words; binding and its absence hold for the method and conditions named. In cells and extracts the contact can be indirect. These calls come from enrichment with a bait or labelling near it, and not all partners need be listed.
Biological target: FLAG-tagged Cdc48-C115S (S. cerevisiae) (UniProt P25694)
Assay: affinity purification with mass spectrometry

The chains behind the UniProt entries cited, without tags or fusion partners. Where a name states a change or a piece, a line headed by the entry shows the natural chain unless it says otherwise.
UniProt P25694: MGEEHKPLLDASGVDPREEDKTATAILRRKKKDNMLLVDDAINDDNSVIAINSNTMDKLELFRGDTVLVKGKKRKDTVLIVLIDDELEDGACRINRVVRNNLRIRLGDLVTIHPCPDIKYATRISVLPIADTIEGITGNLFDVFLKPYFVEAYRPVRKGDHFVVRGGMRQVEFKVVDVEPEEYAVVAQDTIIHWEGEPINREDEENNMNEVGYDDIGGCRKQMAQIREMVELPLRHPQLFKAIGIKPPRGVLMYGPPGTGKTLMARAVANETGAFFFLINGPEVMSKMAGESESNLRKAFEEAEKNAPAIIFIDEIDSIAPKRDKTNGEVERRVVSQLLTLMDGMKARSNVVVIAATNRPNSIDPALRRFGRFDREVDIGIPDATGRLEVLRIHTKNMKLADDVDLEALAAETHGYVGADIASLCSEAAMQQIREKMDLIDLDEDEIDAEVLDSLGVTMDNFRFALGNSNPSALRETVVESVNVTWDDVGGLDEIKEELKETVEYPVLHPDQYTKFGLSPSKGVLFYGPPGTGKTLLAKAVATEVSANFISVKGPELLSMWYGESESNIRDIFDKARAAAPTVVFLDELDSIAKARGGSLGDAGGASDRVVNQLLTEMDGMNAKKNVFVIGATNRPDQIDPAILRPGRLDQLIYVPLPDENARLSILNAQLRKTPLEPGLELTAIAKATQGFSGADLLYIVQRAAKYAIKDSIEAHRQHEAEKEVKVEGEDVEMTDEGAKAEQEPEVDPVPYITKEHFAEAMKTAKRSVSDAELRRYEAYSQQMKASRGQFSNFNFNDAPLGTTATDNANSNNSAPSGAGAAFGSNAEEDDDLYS

binding: binds
B1: Rpf2 (protein, UniProt P36160 1-344)
chain: MIRTVKPKNARAKRALVKREAKLVENVKQALFIPGQSCNKNLHDIMVDLSALKKPDMKRFNRKNDIHPFEDMSPLEFFSEKNDCSLMVLMTSSKKRKNNMTFIRTFGYKIYDMIELMVADNFKLLSDFKKLTFTVGLKPMFTFQGAAFDTHPVYKQIKSLFLDFFRGESTDLQDVAGLQHVISMTIQGDFQDGEPLPNVLFRVYKLKSYKSDQGGKRLPRIELVEIGPRLDFKIGRIHTPSPDMVTEAHKKPKQLEMKTKKNVELDIMGDKLGRIHMGKQDLGKLQTRKMKGLKSKFDQGTEEGDGEVDEDYEDEASYSDDGQEYEEEFVSATDIEPSAKRQKK
